Measured values as given in patent publication US20110217715A1, “GENE EXPRESSION IN DUCHENNE MUSCULAR DYSTROPHY” (CHILDREN'S HOSPITAL MEDICAL CENTER, priority 2008, published 2011).
Further values from the same series stand in other lists.

Tested on: mRNA expression in peripheral blood of individuals with DMD
Experiment: Whole-blood gene expression microarray: DMD administered deflazacort vs DMD administered prednisone
Format: in vivo, human
Procedure: Fifteen ml of blood was collected from each individual into 6 PAXgene® Vacutainer® tubes (PreAnalytiX, Germany) by antecubital fossa venipuncture. PAXgene® tubes contain a proprietary reagent that immediately stabilizes RNA, thus reducing RNA degradation and minimizing gene expression changes following phlebotomy. The tubes were then inverted 20 times, then remained undisturbed for 2 h at room temperature (about 19° C. to about 22° C.), and then stored at -70° C. until processed. Total RNA was isolated using the Paxgene® blood RNA kit (PreAnalytiX, Germany) according to the manufacturers instructions. The RNA isolated is from all cells in whole blood. Typical yields of total RNA isolated from about 7.5 ml of human whole blood were between 10 μg RNA and 40 μg RNA. RNA quality and purity was analyzed by spectrophotometry using the Nanodrop ND-1000, and RNA integrity was analyzed using the Agilent 2100 Bioanalyzer. […] Sample labeling, hybridization to chips, and image scanning were performed using standard Affymetrix protocols. For each whole blood sample from control individuals and individuals with DMD, total RNA was labeled using the One-Cycle Target Labeling protocol and hybridized to the arrays. […] Double-stranded cDNA synthesis, biotin-labeled cRNA synthesis, and cRNA fragmentation were performed according to the Affymetrix GeneChip Eukaryotic Expression Analysis protocol. The labeled, fragmented cRNA (15 μg) was hybridized at 45° C. overnight. After hybridization, the array was washed and stained. The arrays were scanned with an argon-ion laser at λ=570 nm, with a resolution of 3 μm/pixel (Affymetrix, Inc.). After scanning the array, the raw probe level values for each probe were saved in Affymetrix.cel files. […] Statistical analyses, including t-test analyses, unsupervised hierarchical clustering, and principal component analyses were conducted using Genespring 7.2 software ([…]® 7, Silicon Genetics, Redwood City Calif.). […] Corrections for multiple comparisons used a Benjamini-Hochberg False Discovery Rate (FDR) of 0.05, disclosed in Tang et al., J Cereb Blood Flow Metab 26 (2006) 1089, which is expressly incorporated by reference herein in its entirety. […] Sample processing and array hybridization, probe-level data analysis, and statistical analysis were identical to Example 1.

CC(=O)OCC(=O)[C@@]12N=C(C)O[C@@H]1C[C@H]1[C@@H]3CCC4=CC(=O)C=C[C@]4(C)[C@H]3[C@@H](O)C[C@@]12C [deflazacort]
p-value (AA207241, nucleic acid 2304, vs. prednisone): 0.0344 | p-value (AA806989, nucleic acid 2287, vs. prednisone): 0.017 | p-value (AA838727, nucleic acid 2282, vs. prednisone): 0.0115 | p-value (AF086554, nucleic acid 2328, vs. prednisone): 0.043 | p-value (AF116653, nucleic acid 2303, vs. prednisone): 0.0338 | p-value (AI090764, nucleic acid 2280, vs. prednisone): 0.00719 | p-value (AI302271, nucleic acid 2295, vs. prednisone): 0.0243 | p-value (AI350995, nucleic acid 2277, vs. prednisone): 0.00433 | p-value (AI371550, nucleic acid 2301, vs. prednisone): 0.0334 | p-value (AI718964, nucleic acid 2292, vs. prednisone): 0.0211 | p-value (AI800713, nucleic acid 2297, vs. prednisone): 0.0299 | p-value (AI916948, nucleic acid 1660, vs. prednisone): 0.0303 | p-value (AI985021, nucleic acid 1350, vs. prednisone): 0.0424 | p-value (AK026267, nucleic acid 2288, vs. prednisone): 0.0176 | p-value (AK026679, nucleic acid 2331, vs. prednisone): 0.044 | p-value (AK057701, nucleic acid 2296, vs. prednisone): 0.0246 | p-value (AL117451, nucleic acid 2335, vs. prednisone): 0.0472 | p-value (AL119001, nucleic acid 2278, vs. prednisone): 0.00572 | p-value (AU120130, nucleic acid 2334, vs. prednisone): 0.047 | p-value (AW130600, nucleic acid 2276, vs. prednisone): 0.00258 | p-value (AW293956, nucleic acid 2300, vs. prednisone): 0.0326 | p-value (AW340891, nucleic acid 729, vs. prednisone): 0.0312 | p-value (AW451107, nucleic acid 2283, vs. prednisone): 0.0133 | p-value (AW954199, nucleic acid 2333, vs. prednisone): 0.0452 | p-value (BC008462, nucleic acid 2294, vs. prednisone): 0.0226 | p-value (BC016013, nucleic acid 2279, vs. prednisone): 0.00609 | p-value (BC035170, nucleic acid 2290, vs. prednisone): 0.0206 | p-value (BC035958, nucleic acid 2305, vs. prednisone): 0.0353 | p-value (BC040914, nucleic acid 2289, vs. prednisone): 0.0182 | p-value (BE739287, nucleic acid 2286, vs. prednisone): 0.017 | p-value (BF055351, nucleic acid 334, vs. prednisone): 0.00555 | p-value (BF438386, nucleic acid 2291, vs. prednisone): 0.0209 | p-value (BF514098, nucleic acid 2330, vs. prednisone): 0.0439 | p-value (BG288330, nucleic acid 2299, vs. prednisone): 0.0309 | p-value (BG389789, nucleic acid 2302, vs. prednisone): 0.0336 | p-value (BGR, AW341515, nucleic acid 2310, vs. prednisone): 0.00516 | p-value (BM728567, nucleic acid 2293, vs. prednisone): 0.0214 | p-value (C1orf128, AF271784, nucleic acid 2311, vs. prednisone): 0.031 | p-value (CA444630, nucleic acid 1377, vs. prednisone): 0.0205 | p-value (CDC27, AA166684, nucleic acid 2312, vs. prednisone): 0.0359 | p-value (CDNA FLJ12367 fis, clone MAMMA1002413, Genbank AL119001, Nucleic Acid No. 2278): 0.00572 | p-value (CDNA FLJ14081 fis, clone HEMBB1002280, Genbank BM728567, Nucleic Acid No. 2293): 0.0214 | p-value (CDNA FLJ33139 fis, clone UTERU1000109, Genbank AK057701, Nucleic Acid No. 2296): 0.0246 | p-value (CDNA FLJ39805 fis, clone SPLEN2007951, Genbank CA444630, Nucleic Acid No. 1377): 0.0205 | p-value (CDNA FLJ41375 fis, clone BRCAN2007700, Genbank BE739287, Nucleic Acid No. 2286): 0.017 | p-value (CDNA FLJ43285 fis, clone MESAN2000067, Genbank AI302271, Nucleic Acid No. 2295): 0.0243 | p-value (CDNA FLJ43311 fis, clone NT2RI2009855, Genbank AI985021, Nucleic Acid No. 1350): 0.0424 | p-value (CDNA FLJ46440 fis, clone THYMU3016022, Genbank BG288330, Nucleic Acid No. 2299): 0.0309 | p-value (CDNA clone IMAGE: 4769453, Genbank AA806989, Nucleic Acid No. 2287): 0.017 | p-value (CDNA clone IMAGE: 4769453, Genbank AI350995, Nucleic Acid No. 2277): 0.00433 | p-value (CDNA clone IMAGE: 6254031, Genbank AI800713, Nucleic Acid No. 2297): 0.0299 | p-value (Clone 25194 mRNA sequence, Genbank BF438386, Nucleic Acid No. 2291): 0.0209 | p-value (FGFR1OP2, W74643, nucleic acid 1750, vs. prednisone): 0.0301 | p-value (FLJ37562, BF436799, nucleic acid 2313, vs. prednisone): 0.0328 | p-value (Full length insert cDNA YR33G07, Genbank AW340891, Nucleic Acid No. 729): 0.0312 | p-value (Full length insert cDNA YR33G07, Genbank H48516, Nucleic Acid No. 2285): 0.0165 | p-value (Genbank AA207241, Nucleic Acid No. 2304): 0.0344 | p-value (Genbank AF116653, Nucleic Acid No. 2303): 0.0338 | p-value (Genbank AI371550, Nucleic Acid No. 2301): 0.0334 | p-value (Genbank AK026267, Nucleic Acid No. 2288): 0.0176 | p-value (Genbank AL117451, Nucleic Acid No. 2335): 0.0472 | p-value (Genbank AU120130, Nucleic Acid No. 2334): 0.047 | p-value (Genbank BC035170, Nucleic Acid No. 2290): 0.0206 | p-value (Genbank BC035958, Nucleic Acid No. 2305): 0.0353 | p-value (Genbank BF055351, Nucleic Acid No. 334): 0.00555 | p-value (Genbank BG389789, Nucleic Acid No. 2302): 0.0336 | p-value (Genbank H43637, Nucleic Acid No. 2306): 0.04 | p-value (Genbank N35922, Nucleic Acid No. 2298): 0.0304 | p-value (Genbank NM_173704, Nucleic Acid No. 2284): 0.0147 | p-value (Genbank U20489, Nucleic Acid No. 2281): 0.0108 | p-value (H43637, nucleic acid 2306, vs. prednisone): 0.04 | p-value (H48516, nucleic acid 2285, vs. prednisone): 0.0165 | p-value (H94876, nucleic acid 2329, vs. prednisone): 0.0435 | p-value (HBLD2, NM_030940, nucleic acid 2314, vs. prednisone): 0.0311 | p-value (Homo sapiens, clone IMAGE: 4272847, mRNA, Genbank BC008462, Nucleic Acid No. 2294): 0.0226 | p-value (Homo sapiens, clone IMAGE: 4695648, mRNA, Genbank BC016013, Nucleic Acid No. 2279): 0.00609 | p-value (Homo sapiens, clone IMAGE: 5745627, mRNA, Genbank BC040914, Nucleic Acid No. 2289): 0.0182 | p-value (Hypothetical gene supported by AK024248, AL137733, Genbank AF086554, Nucleic Acid No. 2328): 0.043 | p-value (KLF9, NM_001206, nucleic acid 2315, vs. prednisone): 0.0319 | p-value (LOC51326, AF119889, nucleic acid 2316, vs. prednisone): 0.0429 | p-value (MLC1SA, NM_002475, nucleic acid 2317, vs. prednisone): 0.0202 | p-value (MRNA, cDNA DKFZp564O0862, Genbank AW130600, Nucleic Acid No. 2276): 0.00258 | p-value (MTF1, NM_005955, nucleic acid 2130, vs. prednisone): 5.84E−05 | p-value (MTP18, AF060924, nucleic acid 2318, vs. prednisone): 0.0129 | p-value (MYADM, BE908995, nucleic acid 2132, vs. prednisone): 0.0206 | p-value (MYLIP, AW292746, nucleic acid 2133, vs. prednisone): 0.00321 | p-value (MYO1F, BF740152, nucleic acid 2134, vs. prednisone): 0.0266 | p-value (N4BP1, AB014515, nucleic acid 2135, vs. prednisone): 0.0291 | p-value (N35922, nucleic acid 2298, vs. prednisone): 0.0304 | p-value (NCF2, BC001606, nucleic acid 2136, vs. prednisone): 0.0348 | p-value (NCOA1, BF576458, nucleic acid 2137, vs. prednisone): 0.00399 | p-value (NCOA6, AF128458, nucleic acid 926, vs. prednisone): 0.0221
